# From the supplement of paper PMC10849652
# The chains behind the UniProt entries cited, without tags or fusion partners. Where a name states a change or a piece, a line headed by the entry shows the natural chain unless it says otherwise.
# UniProt Q96ND0: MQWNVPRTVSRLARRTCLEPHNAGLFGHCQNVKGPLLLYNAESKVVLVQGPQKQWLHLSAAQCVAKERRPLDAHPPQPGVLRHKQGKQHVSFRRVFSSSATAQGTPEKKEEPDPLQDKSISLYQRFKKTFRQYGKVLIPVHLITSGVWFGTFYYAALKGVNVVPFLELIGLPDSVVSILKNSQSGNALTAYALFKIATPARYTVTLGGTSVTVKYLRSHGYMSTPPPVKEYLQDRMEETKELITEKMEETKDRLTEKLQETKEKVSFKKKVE
# UniProt Q96PL5: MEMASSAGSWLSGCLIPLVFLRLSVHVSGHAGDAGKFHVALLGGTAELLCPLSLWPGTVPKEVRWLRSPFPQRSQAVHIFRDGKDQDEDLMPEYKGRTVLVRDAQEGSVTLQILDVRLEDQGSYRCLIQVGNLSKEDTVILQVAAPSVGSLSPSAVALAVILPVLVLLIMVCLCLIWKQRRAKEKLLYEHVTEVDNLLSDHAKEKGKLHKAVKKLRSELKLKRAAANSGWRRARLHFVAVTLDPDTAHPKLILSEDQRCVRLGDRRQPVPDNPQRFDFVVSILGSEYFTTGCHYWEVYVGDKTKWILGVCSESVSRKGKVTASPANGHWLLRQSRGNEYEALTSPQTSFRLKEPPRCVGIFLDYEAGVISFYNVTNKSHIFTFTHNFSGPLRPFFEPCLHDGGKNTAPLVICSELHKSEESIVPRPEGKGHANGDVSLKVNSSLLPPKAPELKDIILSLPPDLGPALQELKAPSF
# UniProt Q5T8I3: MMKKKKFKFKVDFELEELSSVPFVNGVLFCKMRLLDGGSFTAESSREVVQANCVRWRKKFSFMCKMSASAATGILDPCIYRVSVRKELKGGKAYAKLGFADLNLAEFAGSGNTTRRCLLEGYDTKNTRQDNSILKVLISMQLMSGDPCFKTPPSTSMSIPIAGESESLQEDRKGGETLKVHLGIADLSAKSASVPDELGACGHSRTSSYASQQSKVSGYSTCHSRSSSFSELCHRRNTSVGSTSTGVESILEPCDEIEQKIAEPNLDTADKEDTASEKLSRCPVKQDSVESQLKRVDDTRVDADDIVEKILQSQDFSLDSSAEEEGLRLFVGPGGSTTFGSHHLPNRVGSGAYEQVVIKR
# UniProt Q96E09: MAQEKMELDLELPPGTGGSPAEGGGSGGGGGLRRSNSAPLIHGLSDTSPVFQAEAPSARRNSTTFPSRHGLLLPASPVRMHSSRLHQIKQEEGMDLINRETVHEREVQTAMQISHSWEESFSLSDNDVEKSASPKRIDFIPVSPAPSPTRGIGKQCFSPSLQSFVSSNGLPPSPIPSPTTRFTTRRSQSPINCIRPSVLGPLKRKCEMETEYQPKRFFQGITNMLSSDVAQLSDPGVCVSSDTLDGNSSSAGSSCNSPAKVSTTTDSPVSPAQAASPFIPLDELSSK
# UniProt Q86V87: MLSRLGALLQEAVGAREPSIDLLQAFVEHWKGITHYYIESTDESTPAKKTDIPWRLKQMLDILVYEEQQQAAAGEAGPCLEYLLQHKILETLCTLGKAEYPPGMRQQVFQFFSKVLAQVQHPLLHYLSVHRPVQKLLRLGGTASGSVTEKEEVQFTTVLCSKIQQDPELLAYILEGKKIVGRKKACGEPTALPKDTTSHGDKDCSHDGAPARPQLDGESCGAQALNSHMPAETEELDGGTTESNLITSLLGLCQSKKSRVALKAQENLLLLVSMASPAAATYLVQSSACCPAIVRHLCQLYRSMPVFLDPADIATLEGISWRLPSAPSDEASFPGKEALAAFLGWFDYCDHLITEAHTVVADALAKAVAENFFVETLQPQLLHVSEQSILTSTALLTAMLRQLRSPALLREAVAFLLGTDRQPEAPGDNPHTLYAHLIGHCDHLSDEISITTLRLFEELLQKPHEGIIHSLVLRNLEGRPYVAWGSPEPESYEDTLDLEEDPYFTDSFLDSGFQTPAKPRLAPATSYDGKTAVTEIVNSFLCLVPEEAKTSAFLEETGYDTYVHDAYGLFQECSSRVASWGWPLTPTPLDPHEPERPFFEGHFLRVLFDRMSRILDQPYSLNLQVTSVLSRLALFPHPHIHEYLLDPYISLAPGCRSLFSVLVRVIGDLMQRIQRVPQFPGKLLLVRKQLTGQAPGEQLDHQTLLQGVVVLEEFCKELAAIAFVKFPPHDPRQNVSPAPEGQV
# UniProt Q86YB8: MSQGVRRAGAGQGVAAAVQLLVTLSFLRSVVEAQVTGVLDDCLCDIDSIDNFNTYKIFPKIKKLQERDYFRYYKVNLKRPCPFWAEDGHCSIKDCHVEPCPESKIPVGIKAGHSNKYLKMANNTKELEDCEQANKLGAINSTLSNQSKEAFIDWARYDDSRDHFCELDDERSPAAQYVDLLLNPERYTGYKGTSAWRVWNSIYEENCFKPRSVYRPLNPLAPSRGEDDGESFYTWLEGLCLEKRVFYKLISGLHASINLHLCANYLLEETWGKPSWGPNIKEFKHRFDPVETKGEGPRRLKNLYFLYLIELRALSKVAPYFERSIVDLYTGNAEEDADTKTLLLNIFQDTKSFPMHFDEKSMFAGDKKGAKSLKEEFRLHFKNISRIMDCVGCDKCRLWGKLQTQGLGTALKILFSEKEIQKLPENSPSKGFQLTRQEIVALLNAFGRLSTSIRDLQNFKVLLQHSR
# UniProt Q13868, whole entry, looked up: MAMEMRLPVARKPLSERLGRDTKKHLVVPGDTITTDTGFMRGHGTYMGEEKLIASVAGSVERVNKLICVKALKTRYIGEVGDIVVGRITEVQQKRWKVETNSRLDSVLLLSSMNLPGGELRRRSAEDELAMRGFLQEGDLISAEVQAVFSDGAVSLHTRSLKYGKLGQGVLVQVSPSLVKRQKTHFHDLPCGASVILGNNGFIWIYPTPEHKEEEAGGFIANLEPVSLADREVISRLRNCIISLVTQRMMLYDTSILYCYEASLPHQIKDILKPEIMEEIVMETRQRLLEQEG
# UniProt P15311, whole entry, looked up: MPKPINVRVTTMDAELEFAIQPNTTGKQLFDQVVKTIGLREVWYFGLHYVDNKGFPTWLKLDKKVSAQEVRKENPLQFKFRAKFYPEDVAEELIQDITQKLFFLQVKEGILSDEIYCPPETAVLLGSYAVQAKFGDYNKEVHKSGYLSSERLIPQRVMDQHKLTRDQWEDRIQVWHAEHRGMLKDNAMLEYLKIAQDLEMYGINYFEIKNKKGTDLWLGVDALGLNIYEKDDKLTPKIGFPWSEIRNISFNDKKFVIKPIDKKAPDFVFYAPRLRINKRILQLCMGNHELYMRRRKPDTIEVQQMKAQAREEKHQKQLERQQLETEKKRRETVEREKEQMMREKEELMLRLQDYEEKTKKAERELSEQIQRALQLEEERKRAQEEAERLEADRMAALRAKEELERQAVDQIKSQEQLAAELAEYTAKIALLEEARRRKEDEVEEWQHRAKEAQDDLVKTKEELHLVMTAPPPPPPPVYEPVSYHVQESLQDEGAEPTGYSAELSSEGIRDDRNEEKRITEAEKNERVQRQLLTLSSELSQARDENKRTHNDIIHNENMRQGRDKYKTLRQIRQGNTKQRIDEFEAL
# UniProt Q96DF8: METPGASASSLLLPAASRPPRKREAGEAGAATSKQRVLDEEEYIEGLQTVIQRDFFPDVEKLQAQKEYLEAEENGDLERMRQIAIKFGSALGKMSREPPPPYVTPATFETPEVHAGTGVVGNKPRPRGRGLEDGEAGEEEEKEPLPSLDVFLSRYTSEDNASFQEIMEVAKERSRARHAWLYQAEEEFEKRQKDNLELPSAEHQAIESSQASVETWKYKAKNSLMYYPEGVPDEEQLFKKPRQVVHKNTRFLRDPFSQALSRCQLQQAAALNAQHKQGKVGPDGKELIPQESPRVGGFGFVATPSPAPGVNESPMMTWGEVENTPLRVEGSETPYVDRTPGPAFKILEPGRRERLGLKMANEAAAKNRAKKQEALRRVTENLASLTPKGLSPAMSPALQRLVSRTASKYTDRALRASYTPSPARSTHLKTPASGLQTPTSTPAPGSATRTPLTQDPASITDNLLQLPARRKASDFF
# UniProt Q14153: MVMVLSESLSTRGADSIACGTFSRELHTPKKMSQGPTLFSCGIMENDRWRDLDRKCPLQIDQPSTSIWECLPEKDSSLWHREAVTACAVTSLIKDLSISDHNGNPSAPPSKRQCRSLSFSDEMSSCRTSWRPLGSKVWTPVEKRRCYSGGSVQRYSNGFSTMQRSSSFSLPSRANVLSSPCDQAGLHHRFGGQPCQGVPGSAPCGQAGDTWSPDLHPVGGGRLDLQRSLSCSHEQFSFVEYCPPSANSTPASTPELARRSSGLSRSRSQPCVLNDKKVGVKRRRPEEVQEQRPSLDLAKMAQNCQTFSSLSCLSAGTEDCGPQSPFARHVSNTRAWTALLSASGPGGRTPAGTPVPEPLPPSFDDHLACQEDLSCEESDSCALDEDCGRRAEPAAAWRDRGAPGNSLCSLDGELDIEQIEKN
# UniProt Q5RKV6, whole entry, looked up: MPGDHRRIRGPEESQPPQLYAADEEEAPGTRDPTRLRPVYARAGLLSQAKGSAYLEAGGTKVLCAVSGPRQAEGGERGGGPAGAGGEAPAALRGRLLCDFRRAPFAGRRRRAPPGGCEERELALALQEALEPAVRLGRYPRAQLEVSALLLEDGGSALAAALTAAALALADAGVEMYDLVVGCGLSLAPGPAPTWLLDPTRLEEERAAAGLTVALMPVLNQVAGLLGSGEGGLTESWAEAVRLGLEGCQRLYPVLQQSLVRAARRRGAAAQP
# UniProt Q9NWS6: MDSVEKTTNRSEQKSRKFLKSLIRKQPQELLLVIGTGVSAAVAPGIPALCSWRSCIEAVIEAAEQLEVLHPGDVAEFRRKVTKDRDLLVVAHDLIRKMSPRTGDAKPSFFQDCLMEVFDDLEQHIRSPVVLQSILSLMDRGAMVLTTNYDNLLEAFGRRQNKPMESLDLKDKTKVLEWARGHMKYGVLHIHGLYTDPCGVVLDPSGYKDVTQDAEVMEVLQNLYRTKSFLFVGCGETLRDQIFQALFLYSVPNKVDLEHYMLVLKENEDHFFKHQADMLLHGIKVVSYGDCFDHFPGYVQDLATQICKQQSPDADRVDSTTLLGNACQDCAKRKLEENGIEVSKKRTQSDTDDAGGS
# UniProt Q9NUQ9: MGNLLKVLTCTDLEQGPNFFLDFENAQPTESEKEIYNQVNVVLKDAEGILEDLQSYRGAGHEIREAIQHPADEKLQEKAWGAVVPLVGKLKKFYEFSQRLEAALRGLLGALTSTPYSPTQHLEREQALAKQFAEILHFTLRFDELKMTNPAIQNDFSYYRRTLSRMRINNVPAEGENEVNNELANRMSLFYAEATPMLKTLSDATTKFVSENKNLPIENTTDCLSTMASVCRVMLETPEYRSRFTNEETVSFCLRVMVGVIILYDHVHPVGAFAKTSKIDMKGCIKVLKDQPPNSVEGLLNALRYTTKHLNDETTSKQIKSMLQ
# UniProt Q96HE7: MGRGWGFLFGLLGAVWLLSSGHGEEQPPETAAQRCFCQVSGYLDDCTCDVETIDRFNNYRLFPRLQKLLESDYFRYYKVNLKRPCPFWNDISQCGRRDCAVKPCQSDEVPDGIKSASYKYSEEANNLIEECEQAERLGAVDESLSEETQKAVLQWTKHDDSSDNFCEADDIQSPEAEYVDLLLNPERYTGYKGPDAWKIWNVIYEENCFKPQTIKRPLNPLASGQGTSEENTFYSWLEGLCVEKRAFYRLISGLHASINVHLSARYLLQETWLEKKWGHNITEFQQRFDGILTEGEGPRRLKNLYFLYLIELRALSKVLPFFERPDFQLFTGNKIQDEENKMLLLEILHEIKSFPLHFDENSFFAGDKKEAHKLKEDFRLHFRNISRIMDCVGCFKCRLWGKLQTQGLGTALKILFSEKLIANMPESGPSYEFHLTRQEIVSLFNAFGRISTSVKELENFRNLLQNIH
# UniProt Q01469, whole entry, looked up: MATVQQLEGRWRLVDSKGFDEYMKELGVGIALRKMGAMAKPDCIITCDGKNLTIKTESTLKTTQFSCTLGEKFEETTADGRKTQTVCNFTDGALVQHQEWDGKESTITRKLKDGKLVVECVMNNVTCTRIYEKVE
# UniProt Q96CS3: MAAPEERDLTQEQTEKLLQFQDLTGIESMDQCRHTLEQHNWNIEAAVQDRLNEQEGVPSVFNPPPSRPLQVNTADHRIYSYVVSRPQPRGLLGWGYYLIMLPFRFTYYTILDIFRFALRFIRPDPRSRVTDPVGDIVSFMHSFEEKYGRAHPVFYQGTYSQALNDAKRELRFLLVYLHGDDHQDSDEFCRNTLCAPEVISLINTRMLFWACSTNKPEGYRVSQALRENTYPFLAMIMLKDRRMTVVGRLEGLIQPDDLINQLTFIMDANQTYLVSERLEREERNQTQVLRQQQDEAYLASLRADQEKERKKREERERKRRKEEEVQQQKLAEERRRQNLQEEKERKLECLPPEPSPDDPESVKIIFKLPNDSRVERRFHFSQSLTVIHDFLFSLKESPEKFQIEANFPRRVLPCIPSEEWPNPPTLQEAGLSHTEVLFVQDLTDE
# This is one part of the list.
# Columns and labels:
# Experiment in all cases: log2 fold change, soluble protein after heating vs DMSO (PISA); higher = thermal stabilisation; K562 lysate, 10 uM; active = over 0.2 and 3.5 SD of the protein, either way, in both replicates (recomputed)
# [1] = compound: NCC(=O)Nc1ccc(-n2nc(C(F)(F)F)cc2-c2ccc3c(ccc4ccccc43)c2)cc1
# Procedure, shortened: (§1)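 K562 pellets were dounce-homogenised in PBS pH 7.4 containing 1 mM MgCl2, and the crude extract, at 1 mg/mL protein, was exposed to 10 μM compound for 30 min. Aliquots were heated for 3 min across 48°C-58°C, pooled, brought to 0.5% NP-40 at 4°C and spun at 21,000xg for 90 min, with the supernatant taken as soluble protein. TMTpro 16plex LC-MS/MS with equalised channel sums quantified that protein. Values are log-two fold changes in thermal stability relative to solvent controls, taken from duplicates.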
# [2] = compound: O=C(CCCCCCC(=O)Nc1ccccc1)NO [vorinostat]
# Procedure, shortened: as §1
# [3] = compound: O=C(O)c1ccc2c(c1)nc(Nc1cccc(Cl)c1)c1ccncc12 [silmitasertib]
# Procedure, shortened: as §1
# [4] = compound: O=C1NC(=O)C(c2cnc3ccccn23)=C1c1cn2c3c(cc(F)cc13)CN(C(=O)N1CCCCC1)CC2
# Procedure, shortened: as §1
# [5] = compound: c1cn2cc(-c3ccc4cn[nH]c4c3)nc(Nc3ccc(N4CCOCC4)cc3)c2n1 [entospletinib]
# Procedure, shortened: as §1
Target,log2 fold change [1],log2 fold change [2],log2 fold change [3],log2 fold change [4],log2 fold change [5]
FADS3 (UniProt Q9Y5Q0),inactive: 0.21,inactive: 0.247,inactive: -0.126,inactive: 0.004,inactive: -0.185
FAM210A (UniProt Q96ND0),inactive: -0.005,inactive: 0.053,inactive: 0.066,inactive: 0.01,inactive: 0.021
ERMAP (UniProt Q96PL5),inactive: -0.007,inactive: 0.138,inactive: 0.033,inactive: 0.065,inactive: -0.036
ETF1 (UniProt P62495),inactive: 0.009,inactive: 0.044,inactive: -0.001,inactive: -0.011,inactive: 0.003
FAM102B (UniProt Q5T8I3),inactive: -0.002,inactive: -0.259,inactive: -0.485,inactive: -0.05,inactive: -0.03
ESYT1 isoform 2 (UniProt Q9BSJ8),inactive: -0.057,inactive: -0.053,inactive: 0.034,inactive: -0.071,inactive: 0.011
EWSR1 isoform 5 (UniProt Q01844),inactive: 0.027,inactive: 0.036,inactive: -0.034,inactive: 0.006,inactive: 0.014
FAM122A (UniProt Q96E09),inactive: 0.011,inactive: 0.182,inactive: 0.036,inactive: -0.009,inactive: -0.047
FAM160B2 (UniProt Q86V87),inactive: -0.237,inactive: 0.093,inactive: -0.024,inactive: 0.114,inactive: 0.021
ERO1B (UniProt Q86YB8),inactive: 0.095,inactive: 0.047,inactive: -0.019,inactive: 0,inactive: -0.066
ESYT2 (UniProt H7BXI1),inactive: -0.041,active: 0.243,inactive: -0.002,inactive: -0.002,inactive: 0.019
EXOSC2 (UniProt Q13868),inactive: 0.002,inactive: 0.197,inactive: -0.007,inactive: -0.033,inactive: -0.002
EZR (UniProt P15311),inactive: 0.003,inactive: 0.127,inactive: 0.004,inactive: -0.017,inactive: 0.023
EXOSC5 (UniProt Q9NQT4),inactive: 0.012,inactive: 0.033,inactive: -0.001,inactive: -0.071,inactive: -0.013
ESS2 (UniProt Q96DF8),inactive: 0.08,inactive: 0,inactive: -0.04,inactive: -0.007,inactive: -0.006
EXOC2 (UniProt Q96KP1),inactive: -0.012,active: -0.361,inactive: 0.031,inactive: 0.022,inactive: 0.024
EXT2 isoform 3 (UniProt Q93063),inactive: 0.059,inactive: 0.103,inactive: 0.101,inactive: -0.013,inactive: 0.037
FAM53B (UniProt Q14153),inactive: 0.056,inactive: -0.06,inactive: 0.049,inactive: 0.02,inactive: -0.003
EXOSC6 (UniProt Q5RKV6),inactive: 0.037,inactive: 0.169,inactive: -0.003,inactive: 0.019,inactive: -0.051
FAM118A (UniProt Q9NWS6),inactive: 0.027,active: -0.834,inactive: 0.024,inactive: -0.003,inactive: -0.014
FAM49B (UniProt Q9NUQ9),inactive: -0.029,inactive: 0.068,inactive: 0.018,inactive: 0.021,inactive: 0.011
ERO1A (UniProt Q96HE7),inactive: 0.001,inactive: 0.128,inactive: -0.002,inactive: -0.027,inactive: -0.027
ESF1 (UniProt Q9H501),inactive: -0.004,inactive: -0.038,inactive: 0.026,inactive: -0.045,inactive: -0.013
FABP5 (UniProt Q01469),inactive: -0.04,inactive: 0.099,inactive: -0.02,inactive: -0.022,inactive: -0.018
FAF2 (UniProt Q96CS3),inactive: 0.051,inactive: -0.04,inactive: 0.043,inactive: 0.009,inactive: -0.039

# Copied from the list:
# Entry for ERMAP (UniProt Q96PL5) under log2 fold change [3]: inactive: 0.033
# Entry for EXOSC5 (UniProt Q9NQT4) under log2 fold change [1]: inactive: 0.012
